Data from PubChem BioAssay AID504467 (National Center for Advancing Translational Sciences (NCATS), 2011).
Hit rate of the full screen: of about 330,000 compounds, about 7,700 (2.3%) were called active. The shares of active, inactive and inconclusive entries below differ from those in the screen. Calls come from the whole dose curve; as a rule, active = well fitted inhibition curve with a large enough effect; inconclusive = small, poorly fitted or top-dose-only effect, or effect the other way; inactive = flat fitted curve, though single readings scatter. Potencies beside an inconclusive call are fits to weak or partial responses and may not hold up.

experiment: qHTS screen for small molecules that inhibit ELG1-dependent DNA repair in human embryonic kidney (HEK293T) cells expressing luciferase-tagged ELG1; conditions: HEK293T ELG1-luciferase reporter, luminescence, 16 h, DNA damage induced by 5-fluorouridine; activity change, negative = inhibition: at 46.1 µM (top of the series); note: nearly all actives have a fitted effect of over 55% in size
Procedure, shortened: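 Cells (2,000 per well) received 5-fluorouridine plus test compound or DMSO and were incubated 16 hr at 37 °C, 5% CO2. Luciferase activity was read by luminescence 30 min after ONE-Glo addition; signal suppression marked inhibition of damage-induced ELG1 function.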
% is set by controls: 0 for no effect and ±100 for the full control effect; potency is the fitted concentration of half-maximal effect.

Row | SMILES | Potency | activity change, negative = inhibition
1 | Cc1sc(NC(=O)CN2CCN(c3ccccn3)CC2)c(C#N)c1C | active: 11.6 µM | –
2 | CCCn1c(SCC(=O)Nc2cccnc2Cl)n[nH]c1=O | inconclusive: 29.1 µM [activator, single point] | –
3 | CC(=O)c1c(C)[nH]c(C(=O)Nc2ccccn2)c1C | inconclusive: 9.2 µM [activator, partial curve] | –
4 | COc1ccc(C2NC(=O)CS2)cc1OC (centres undefined) | – | inactive: 7.23%
5 | NC(=O)c1ccc(NC(=O)COC(=O)c2c3c(nc4ccccc24)/C(=C\c2ccc4c(c2)OCO4)CCC3)cc1 | active: 20.6 µM | –
6 | CCNC(=O)c1c(O)c2ccccc2[nH]c1=O | – | inactive: -2.83%
7 | O=[N+]([O-])c1nn(-c2ccc3c(c2)OCCO3)n(O)c1=Nc1ccccc1 | inconclusive: 2.31 µM [activator, partial curve] | –
8 | Cc1cc2nc(-c3cccnc3SCC(=O)NCc3ccco3)[nH]c2cc1C | inconclusive: 1.58 µM [activator, full curve] | –
9 | COC(=O)CNC(=O)c1sc2ncn(CC(=O)Nc3ccc(C)c(Cl)c3)c(=O)c2c1C | – | inactive: -7.62%
10 | Cc1ccccc1NS(=O)(=O)c1nnc(NC(=O)c2ccc(Br)cc2)s1 | – | inactive: 17.9%
11 | Cn1c(SCc2ccccc2Cl)nc2ccccc21 | inconclusive: 9.2 µM [activator, partial curve] | –
12 | Cn1c(=O)oc2cc(S(=O)(=O)N3CCc4ccccc43)ccc21 | – | inactive: 0%
13 | O=C(COc1ccc(F)cc1Cl)Nc1cccc(S(=O)(=O)N2CCCC2)c1 | inconclusive: 20.6 µM [inhibitor, single point] | –
14 | COc1ccc(/C(C)=N/Nc2ccc(C(=O)O)cc2)cc1OC | inconclusive: 2.31 µM [activator, full curve] | –
15 | NC(=O)COc1ccc(/C=C2\C(=O)ON=C2c2ccccc2)cc1 | inconclusive: 5.8 µM [activator, partial curve, poor fit] | –
16 | CCCCc1c(C)nc2ccc(C)cc2c1SCCC(=O)O | – | inactive: 9.18%
17 | C/C(CC(=O)NCc1ccccc1)=N\NC(N)=S | – | inactive: 7.71%
18 | COc1ccccc1N1Cc2ccccc2C1 | – | inactive: 11.8%
19 | CCC1(CC)Cc2ccccc2-c2nc(-c3ccccc3)oc(=O)c21 | – | inactive: 1.33%
20 | CC1CN(c2nc(Nc3ccccc3)nc(N)c2[N+](=O)[O-])CC(C)O1 (centres undefined) | inconclusive: 16.4 µM [inhibitor, single point] | –
21 | Nc1ccc(-c2ncc(-c3ccccc3)o2)cc1 | inconclusive: 4.11 µM [activator, single point] | –
22 | CCN(CC)CCn1c(NC(=O)c2ccccc2O)nc2ccccc21 | – | inactive: 9.63%
23 | NNc1nc2c(F)cc(F)cc2s1 | inconclusive: 8.2 µM [activator, partial curve] | –
24 | CCC(C)NC(=O)CSc1nc2c(sc3ccccc32)c(=O)n1CCCN1CCOCC1 (centres undefined) | – | inactive: 0.389%
25 | C=CCc1c(C)nc(-c2ccccc2)nc1Nc1ccc(O)cc1 | inconclusive: 25.9 µM [inhibitor, partial curve, poor fit] | –

Row | SMILES | Potency | activity change, negative = inhibition
26 | CCC(Sc1nc2ccccc2s1)C(=O)Nc1nnc(C)s1 (centres undefined) | – | inactive: 3.24%
27 | CCOC(=O)c1c(NC(=O)COC(=O)Cn2c(C)nc3ccccc32)sc2c1CCCC2 | – | inactive: 0.973%
28 | COc1ccc(NC(=O)Cn2nnc(C(=O)NCc3ccc(C)cc3)c2N)cc1OC | inconclusive: 25.9 µM [activator, partial curve, poor fit] | –
29 | CN(C(=O)COC(=O)CSc1ccc(C(N)=O)cc1[N+](=O)[O-])C1CCCCC1 | – | inactive: 13.4%
30 | Cn1c(=O)[nH]c(=O)c2c1nc(Sc1ccccc1)n2CCc1ccccc1 | – | inactive: 11.5%
31 | O=C1NC(=O)/C(=C/c2ccco2)N1 | – | inactive: 18.7%
32 | NC(=O)C1CCN(c2nc(-c3ccccc3F)cs2)CC1 | inconclusive: 0.461 µM [activator, full curve] | –
33 | O=C(Nc1ccccc1)c1ccc(C(=O)Nc2ccccc2)nc1 | inconclusive: 2.59 µM [activator, full curve] | –
34 | COc1ccc(NC(=S)/N=C(\N)Nc2nc(C)c3ccc(C)cc3n2)cc1 | inconclusive: 29.1 µM [inhibitor, single point] | –
35 | O=C(/C=C/c1cccnc1)/C=C/c1cccnc1 | inconclusive: 5.17 µM [activator, partial curve] | –
36 | CCN(CC)c1ccc(NC(=O)Nc2ccccc2)cc1 | inconclusive: 7.3 µM [activator, partial curve] | –
37 | COc1ccccc1C(=O)Nc1ccc2c3c(cccc13)CC2 | inconclusive: 14.6 µM [activator, partial curve] | –
38 | C/C(Nc1ccc(C)cc1)=C(/C#N)C(N)=O | inconclusive: 16.4 µM [activator, partial curve, poor fit] | –
39 | Cc1c(C(=O)N2CCN(c3ccccc3)CC2)oc2c(F)cccc12 | – | inactive: 16%
40 | COc1cccc(-c2nc(C(=O)NCC3CCCO3)cc3c2[nH]c2ccccc23)c1 (centres undefined) | inconclusive: 20.6 µM [inhibitor, single point] | –
41 | CCc1ccc(NC(=O)C(=O)NNC(=O)COc2cccc(OC)c2)cc1 | – | inactive: -3.56%
42 | CN(Cc1ccccc1)C(=O)c1c[nH]c2ccc(S(=O)(=O)N3CCOCC3)cc2c1=O | – | inactive: 7.57%
43 | Cc1c(NC(=S)N/N=C/C=C/c2ccccc2)c(=O)n(-c2ccccc2)n1C | – | inactive: 6.03%
44 | CCOC(=O)c1cnc2c(C)cccc2c1NCc1ccco1 | inconclusive: 32.6 µM [inhibitor, single point] | –
45 | Cc1cc(Cl)ccc1OCC(=O)Nc1ccccc1N1CCOCC1 | – | inactive: 10.9%
46 | CCOc1cc(C(=O)OC(C(=O)NC(=O)NC)c2ccccc2)ccc1OCC(=O)N1CCOCC1 (centres undefined) | inconclusive: 20.6 µM [inhibitor, single point] | –
47 | CCOC(=O)c1c(NC(=O)CN2C(=O)NC(C)(c3ccc(OC(F)F)cc3)C2=O)sc(C)c1C (centres undefined) | inconclusive: 29.1 µM [inhibitor, single point] | –
48 | O=C(CC1C[C@H](C(=O)N2CCOCC2)[C@@]2(CCC3CCCC3)c3[nH]c4ccccc4c3CCN2C1=O)NCCN1CCOCC1 (some centres undefined) | – | inactive: -1.72%
49 | CSc1ccccc1NC(=O)c1ccc2c(c1)CCN2S(C)(=O)=O | inconclusive: 14.6 µM [activator, partial curve] | –
50 | COc1ccccc1N1CCN(C(=O)/C=C/c2cccs2)CC1 | – | inactive: 29%

Row | SMILES | Potency | activity change, negative = inhibition
51 | Cc1ccccc1C(=O)NC(=S)Nc1sc2c(c1C#N)CCC(C)C2 (centres undefined) | inconclusive: 32.6 µM [activator, partial curve, poor fit] | –
52 | O=C(Nc1ccc2c(c1)OCO2)c1nn(-c2ccccc2)c(=O)c2ccccc12 | inconclusive: 22.4 µM [inhibitor, single point] | –
53 | CC(=O)Cc1nsc(NC(=O)c2oc(-c3ccccc3Cl)cc2C)n1 | – | inactive: -5.13%
54 | CC(C)CC(NC(=O)C1CCC(C)CC1)C(=O)Nc1ccccc1F (centres undefined) | – | inactive: -1.95%
55 | CCn1c(SCC(=O)c2ccccc2)nnc1-c1cc2cc(Br)ccc2o1 | – | inactive: 5.72%
56 | CCN1C(=O)C2CCCCN2c2ccc(C(=O)NCCOC)cc21 (centres undefined) | inconclusive: 25.9 µM [activator, single point] | –
57 | COc1ccc2oc(=O)c(C(=O)N3CCN(c4ccccc4)CC3)cc2c1 | inconclusive: 16.4 µM [activator, partial curve] | –
58 | O=C(NCCC1=CCCCC1)c1cc(-c2ccncc2)nc2ccccc12 | inconclusive: 20.6 µM [inhibitor, single point] | –
59 | O=C(NNC(=S)NC(=O)c1cccs1)c1cccnc1 | – | inactive: -22.9%
60 | O=C(O)c1sc2cc(C(F)(F)F)cnc2c1-c1ccccc1 | – | inactive: -6.52%
61 | CN(C)C(=O)c1cc(C(=O)c2ccc(F)cc2C(F)(F)F)c[nH]1 | active: 8.2 µM | –
62 | C#CCOCCOCCOCCNc1nc(N2CCN(C(=O)[C@H](CC(N)=O)n3cc([C@@H](N)C(C)C)nn3)CC2)nc(N2CCN(C(=O)[C@H](CC(N)=O)n3cc([C@@H](N)C(C)C)nn3)CC2)n1 | inconclusive: 16.4 µM [activator, partial curve, poor fit] | –
63 | COc1ccc(CN(C)Cc2nc(Cc3ccccc3Cl)no2)cc1OC | inconclusive: 18.3 µM [inhibitor, partial curve, poor fit] | –
64 | COCCn1c(-c2ccc(OC)cc2)nc2ccccc21 | inconclusive: 16.4 µM [activator, partial curve, poor fit] | –
65 | CCN(CC)c1ccc(/C=N/NC(=O)CNC(=O)C2COc3ccccc3O2)c(O)c1 (centres undefined) | inconclusive: 6.51 µM [inhibitor, single point] | –
66 | Cc1ccc(CN2CCC(=O)N2)cc1 | – | inactive: -9.81%
67 | O=S1(=O)CC/C(=N\Nc2ccccc2)c2ccsc21 | – | inactive: 9.27%
68 | O=C(c1cccs1)N1CCN(c2nnc(-c3ccccc3)c3ccccc23)CC1 | inconclusive: 20.6 µM [inhibitor, single point] | –
69 | O=C1C(=O)N(c2ccccc2)C(c2ccccc2[N+](=O)[O-])/C1=C(\O)c1ccccc1 (centres undefined) | inconclusive: 14.6 µM [activator, partial curve, poor fit] | –
70 | CCn1c(=O)c(C(=O)CN2CCN(Cc3ccc4c(c3)OCO4)CC2)c(N)n(Cc2ccccc2)c1=O | inconclusive: 20.6 µM [inhibitor, partial curve] | –
71 | Cc1ccc(NC(=O)C2CCN(S(=O)(=O)c3ccc4c(c3)NC(=O)C(C)S4)CC2)c(Cl)c1 (centres undefined) | inconclusive: 32.6 µM [inhibitor, single point] | –
72 | CCN(CC)S(=O)(=O)c1cccc(-c2nnc(SCC(=O)N3CCC(C(=O)O)CC3)n2N)c1 | – | inactive: 8.99%
73 | COc1cccc(C(=O)N/N=c2\oc3c(OC)cccc3cc2C(=O)NCc2ccccc2)c1 | active: 4.11 µM | –
74 | CCCCOc1ccc(C(=O)N/N=C/c2cn[nH]c2-c2ccc(OC)c(OC)c2)cc1 | inconclusive: 23.1 µM [inhibitor, partial curve, poor fit] | –

Pulled one by one from the list above, 6 records:
Row | SMILES | Potency | activity change, negative = inhibition
26 | CCC(Sc1nc2ccccc2s1)C(=O)Nc1nnc(C)s1 (centres undefined) | – | inactive: 3.24%
14 | COc1ccc(/C(C)=N/Nc2ccc(C(=O)O)cc2)cc1OC | inconclusive: 2.31 µM [activator, full curve] | –
19 | CCC1(CC)Cc2ccccc2-c2nc(-c3ccccc3)oc(=O)c21 | – | inactive: 1.33%
72 | CCN(CC)S(=O)(=O)c1cccc(-c2nnc(SCC(=O)N3CCC(C(=O)O)CC3)n2N)c1 | – | inactive: 8.99%
20 | CC1CN(c2nc(Nc3ccccc3)nc(N)c2[N+](=O)[O-])CC(C)O1 (centres undefined) | inconclusive: 16.4 µM [inhibitor, single point] | –
51 | Cc1ccccc1C(=O)NC(=S)Nc1sc2c(c1C#N)CCC(C)C2 (centres undefined) | inconclusive: 32.6 µM [activator, partial curve, poor fit] | –
